Data: patent publication US12325708B2, “Adenosine 2 receptor antagonists” (Nektar Therapeutics, priority 2019, dated 2025)
Some results were stated once for a whole list of compounds, not compound by compound.

Molecular target: T1, A2A receptor (Homo sapiens, UniProt P29274)
T1 construct: purchased
Assay: Radioligand receptor binding assay, A2A receptor
Conditions: statement on Table 7
Experimental: Using conventional receptor binding assay techniques, Compounds 1-24 were assayed to determine binding activity at the A2A, A1, and A3 receptors with the results shown in Table 7.
Receptor binding affinity of Compounds 1-24 was measured using radioligand binding assays using commercially obtained cell membranes prepared from cell lines overexpressing the A2A, A1, or A3 receptors. Briefly, cell membrane preparations from cells expressing the specific receptor were mixed with the appropriate [^3H]-labeled tracer for the specific receptor and the test compound or a known inhibitor of receptor-ligand binding. Following 60 min incubation at room temperature to allow receptor-ligand complex formation, the complexes were collected by filtration, washed with 50 mM Tris HCl (pH 7.5) to remove radioligand that was not receptor-bound, and the remaining radioactivity determined by liquid scintillation counting. Specific radioligand binding was calculated for each test compound concentration and IC50 values were determined by non-linear, regression analysis. Inhibition constants (Ki) were calculated using the equation of Cheng and Prusoff using the observed IC50 of the tested compound, the concentration of radioligand employed in the assay and the experimentally determined values for the Kd of the ligand.

| SMILES | Selectivity of affinity for A2A over A1 or A3 receptors |
| --- | --- |
| COCCOc1ccc(N2CCN(CCN(C)c3cc4nc(-c5ncco5)nn4c(N)n3)CC2)cc1 [Compound 1, N^7-(2-{4-[4-(2-methoxyethoxy)phenyl]piperazin-1-yl}ethyl)-N^7-methyl-2-(1,3-oxazol-2-yl)[1,2,4]triazolo[1,5-c]pyrimidine-5,7-diamine] | selective affinity for the A2A receptor over either of the A1 or A3 receptors |
| COCCOc1ccc(N2CCN(CCN(C)c3nc(N)n4nc(-c5ncco5)nc4n3)CC2)cc1 [Compound 2, N^5-(2-{4-[4-(2-methoxyethoxy)phenyl]piperazin-1-yl}ethyl)-N^5-methyl-2-(1,3-oxazol-2-yl)[1,2,4]triazolo[1,5-a][1,3,5]triazine-5,7-diamine] | selective affinity for the A2A receptor over either of the A1 or A3 receptors |
| COCCOc1cnc(N2CCN(CCN(C)c3cc4nc(-c5ncco5)nn4c(N)n3)CC2)nc1 [Compound 3, N^7-(2-{4-[5-(2-methoxyethoxy)pyrimidin-2-yl]piperazin-1-yl}ethyl)-N^7-methyl-2-(1,3-oxazol-2-yl)[1,2,4]triazolo[1,5-c]pyrimidine-5,7-diamine] | selective affinity for the A2A receptor over either of the A1 or A3 receptors |
| COCCOc1cnc(N2CCN(CCN(C)c3cc4nc(-c5ncco5)nn4c(N)n3)CC2)c(F)c1 [Compound 4, N^7-(2-{4-[3-fluoro-5-(2-methoxyethoxy)pyridin-2-yl]piperazin-1-yl}ethyl)-N^7-methyl-2-(1,3-oxazol-2-yl)[1,2,4]triazolo[1,5-c]pyrimidine-5,7-diamine] | selective affinity for the A2A receptor over either of the A1 or A3 receptors |
| CN(CCN1CCN(c2ccc(OCCOC(F)(F)F)cc2)CC1)c1cc2nc(-c3ncco3)nn2c(N)n1 [Compound 5, N^7-methyl-2-(1,3-oxazol-2-yl)-N^7-[2-(4-{4-[2-(trifluoromethoxy)ethoxy]phenyl}piperazin-1-yl)ethyl][1,2,4]triazolo[1,5-c]pyrimidine-5,7-diamine] | selective affinity for the A2A receptor over either of the A1 or A3 receptors |
| [2H]C([2H])([2H])N(CCN1CCN(c2ccc(OCCOC)cc2)CC1)c1cc2nc(-c3ncco3)nn2c(N)n1 [Compound 6, N^7-(2-{4-[4-(2-methoxyethoxy)phenyl]piperazin-1-yl}ethyl)-N^7-(^2H3)methyl-2-(1,3-oxazol-2-yl)[1,2,4]triazolo[1,5-c]pyrimidine-5,7-diamine] | selective affinity for the A2A receptor over either of the A1 or A3 receptors |
| [2H]C([2H])([2H])OCCOc1ccc(N2CCN(CCN(C)c3cc4nc(-c5ncco5)nn4c(N)n3)CC2)cc1 [Compound 7, N^7-methyl-N^7-{2-[4-(4-{2-[(^2H3)methyloxy]ethoxy}phenyl)piperazin-1-yl]ethyl}-2-(1,3-oxazol-2-yl)[1,2,4]triazolo[1,5-c]pyrimidine-5,7-diamine] | selective affinity for the A2A receptor over either of the A1 or A3 receptors |
| [2H]C([2H])([2H])OCCOc1ccc(N2CCN(CCN(c3cc4nc(-c5ncco5)nn4c(N)n3)C([2H])([2H])[2H])CC2)cc1 [Compound 8, N^7-(^2H3)methyl-N^7-{2-[4-(4-{2-[(^2H3)methyloxy]ethoxy}phenyl)piperazin-1-yl]ethyl}-2-(1,3-oxazol-2-yl)[1,2,4]triazolo[1,5-c]pyrimidine-5,7-diamine] | selective affinity for the A2A receptor over either of the A1 or A3 receptors |
| [2H]C([2H])(N1CCN(c2ccc(OCCOC)cc2)CC1)C([2H])([2H])N(C)c1cc2nc(-c3ncco3)nn2c(N)n1 [Compound 9, N^7-[2-{4-[4-(2-methoxyethoxy)phenyl]piperazin-1-yl}(^2H4)ethyl]-N^7-methyl-2-(1,3-oxazol-2-yl)[1,2,4]triazolo[1,5-c]pyrimidine-5,7-diamine] | selective affinity for the A2A receptor over either of the A1 or A3 receptors |
